Measurements from PubChem BioAssay AID743266 (National Center for Advancing Translational Sciences (NCATS), 2014).
In all, about 410,000 compounds went through this assay and about 310 (0.076%) were called active. The inconclusive results got no clear call from the source; some entries with a clear call stand among them for comparison. Calls come from the whole dose curve; as a rule, active = well fitted activation curve with a large enough effect; inconclusive = small, poorly fitted or top-dose-only effect, or another doubt; inactive = no such curve, though single readings can be large or run the other way. Potencies beside an inconclusive call are fits to weak or partial responses and may not hold up.

By UniProt entry, the sequences of proteins in these tests, tags left out.
UniProt Q03431, whole entry, looked up: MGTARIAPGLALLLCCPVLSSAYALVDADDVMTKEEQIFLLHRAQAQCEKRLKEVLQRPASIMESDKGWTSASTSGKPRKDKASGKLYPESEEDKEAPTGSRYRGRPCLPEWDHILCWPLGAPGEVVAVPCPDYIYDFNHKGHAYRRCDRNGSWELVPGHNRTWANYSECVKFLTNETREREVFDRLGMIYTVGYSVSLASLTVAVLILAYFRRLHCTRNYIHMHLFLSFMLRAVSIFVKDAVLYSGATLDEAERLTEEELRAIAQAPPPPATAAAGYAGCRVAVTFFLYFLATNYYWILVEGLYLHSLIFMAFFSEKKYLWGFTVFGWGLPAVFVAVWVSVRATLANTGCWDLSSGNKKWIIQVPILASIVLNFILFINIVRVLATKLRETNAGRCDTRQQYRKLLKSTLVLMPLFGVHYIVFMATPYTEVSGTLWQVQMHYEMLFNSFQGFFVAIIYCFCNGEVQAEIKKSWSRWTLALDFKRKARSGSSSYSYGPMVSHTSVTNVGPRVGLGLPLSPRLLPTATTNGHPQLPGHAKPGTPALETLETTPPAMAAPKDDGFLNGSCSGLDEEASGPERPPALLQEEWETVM

target: Parathyroid hormone/parathyroid hormone-related peptide receptor (Homo sapiens) (UniProt Q03431); assay: qHTS for PTHR1 Agonists: Primary Screen; conditions: HEK293 GP2 PTHR1 cells, GloSensor cAMP luminescence, 1 h; activation: at 115 µM (top of the series) unless noted; series mostly up to 115 µM; note: nearly all actives have a fitted effect of over 55% in size
Outline: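 HEK-293-derived GP2 cells expressing PTHR1 and a GloSensor cAMP reporter, 3,000/well, plated overnight, given luciferin plus IBMX (each 0.5 mM as added) for 1 h at 37 °C, then compound for 1 h at 37 °C. Luminescence was read after 15 min at room temperature.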
Potency is the fitted concentration of half-maximal effect.

Q: For `CCOC(=O)Cn1c(C(=O)OCC)cc2sccc21`, which Potency is on record?
A: inconclusive: 50.1 µM [activator, single point]

Q: How did the “outcome” value turn out when `CSc1nc(N)n2nc(C(C)(C)C)cc2n1` was run?
A: inactive

Q: With `CCOc1cccc(CNCCCSc2ncccn2)c1` as the compound, how does the Potency read?
A: inconclusive: 50.1 µM [activator, single point]

Q: With `CCSc1nc2ccccc2n1C(=O)c1ccc(S(=O)(=O)N2CCCCC2)cc1` as the compound, how does the Potency read?
A: inconclusive: 39.8 µM [activator, single point]

Q: For `O=C1C2CC=CCC2C(=O)N1c1ccc(NCCc2ccc(O)cc2)c([N+](=O)[O-])c1` (centres undefined), which “activation” value is on record?
A: inactive: -52.1%

Q: For `NC(=O)Cn1nnc(-c2ccccc2NC(=O)c2cnccn2)n1`, which Potency is on record?
A: inconclusive: 0.562 µM [activator, full curve, poor fit]

Q: Which Potency does the source give for `Cc1cnc(C(=O)OCC(=O)C23CC4CC(CC(C4)C2)C3)cn1` here?
A: inconclusive: 0.767 µM [activator, partial curve, poor fit]

Q: For `Cc1cccc(-n2c(-c3ccco3)nc3c(cnn3-c3ccccc3C)c2=O)c1`, which activation is on record?
A: inconclusive: -83.7% [activator]

Q: For `CCc1sc(C(=O)Nc2cccnc2)cc1Br`, which “outcome” value is on record?
A: inactive

Q: `Cc1ccc2c(c1)N(CCC(=O)NCc1ccccn1)C(=O)CO2` was tested. Which activation did it give?
A: inconclusive: 60.1% [activator] [at 57.5 µM]

Q: How did the “outcome” value turn out when `c1ccc(COc2cccc(CNn3cnnc3)c2)cc1` was run?
A: inactive [at 57.5 µM]

Q: Which “activation” value does the source give for `COc1cc2c(cc1NC(=O)CSc1ccccc1)oc1ccccc12` here?
A: inactive: -18.3%

Q: With `Cc1cc(C(=O)N2CCC(C(N)=O)CC2)c(C)o1` as the compound, how does the Potency read?
A: inconclusive: 35.5 µM [activator, partial curve, poor fit]

Q: How did the activation turn out when `COCCN(C(=O)c1snc(C(N)=O)c1N)C(C(=O)NC1CCCCC1)c1ccc(N(C)C)cc1` (centres undefined) was run?
A: inconclusive: 37.9% [activator]

Q: `NS(=O)(=O)c1cccc(NC(=O)CCCNC(=O)c2ccc(Cl)cc2)c1` was tested. Which activation did it give?
A: inconclusive: 37.8% [activator]

Q: How did the “activation” value turn out when `O=C(Nc1ccc(Cl)cc1)Nc1ccc(Cl)c(Cl)c1` was run?
A: inactive: -61.4%

Q: With `COc1ccc(C(=O)NCc2ccc3c(c2)CCN3C(=O)c2cccc(C)c2)cc1OC` as the compound, how does the Potency read?
A: inconclusive: 44.7 µM [activator, partial curve, poor fit]

Q: With `CCOC(=O)C1CCCN(C(=O)c2sc(-c3ccccc3)nc2C)CC1` (centres undefined) as the compound, how does the “activation” value read?
A: inactive: -69%

Q: Which Potency does the source give for `COc1ccccc1C(=O)Nc1ccccc1C(=O)NCc1ccco1` here?
A: inconclusive: 14.1 µM [activator, partial curve]

Q: For `Cc1cc(=O)n2[nH]c(Nc3cccc(Cl)c3)nc2n1`, which Potency is on record?
A: inconclusive: 11.2 µM [activator, partial curve, poor fit]

Q: Which “activation” value does the source give for `CCc1ccc2c(c1)c(=O)c(C(=O)c1ccccc1)cn2CC(=O)Nc1ccc(C)c(Cl)c1` here?
A: inactive: -32.7%

Q: For `CCN1C(=O)N/C(=C/c2ccc(Sc3ccc(C)cc3)o2)C1=O`, which “activation” value is on record?
A: inactive: -17.5% [at 57.5 µM]

Q: `CCCOc1c(Br)cc(C(N)=O)cc1OCC` was tested. Which Potency did it give?
A: inconclusive: 126 µM [activator, single point]

Q: `C=CCNC(=O)C1CC(=O)N(c2ccc(OCC(=O)N3CCCC3)cc2)C1` (centres undefined) was tested. Which Potency did it give?
A: inconclusive: 2 µM [activator, full curve, poor fit]

Q: With `N=c1c(-c2nc3ccccc3[nH]2)cc(C(=O)c2ccco2)nn1-c1ccccc1` as the compound, how does the Potency read?
A: inconclusive: 15.8 µM [activator, partial curve, poor fit]

Q: How did the activation turn out when `CC1CCN(CC(=O)Nc2ccc(C(=O)N3CCCCC3)cc2)CC1` was run?
A: inconclusive: 80.4% [activator]

Q: With `CN(Cc1cc2ccccc2[nH]c1=O)S(C)(=O)=O` as the compound, how does the Potency read?
A: inconclusive: 1.58 µM [activator, partial curve, poor fit]

Q: Which Potency does the source give for `COc1ccc(Cl)cc1NS(=O)(=O)c1cccc(C(=O)NCC(C)(C)N2CCOCC2)c1` here?
A: inconclusive: 56.2 µM [activator, partial curve, poor fit]

Q: For `O=C(/C(Br)=C/Nc1cc(Cl)ccc1Cl)C(F)(F)F`, which Potency is on record?
A: inconclusive: 100 µM [activator, partial curve, poor fit]

Q: For `COc1ccc(C)cc1NC(=O)C(OC(=O)CNC(=O)c1cccc(F)c1)c1ccccc1` (centres undefined), which Potency is on record?
A: inconclusive: 11.2 µM [activator, partial curve, poor fit]

Q: How did the Potency turn out when `Cc1ccc(-c2nc3nc(C)cc(N4CCN(c5cccc(C)c5)C(C)C4)n3n2)cc1` (centres undefined) was run?
A: inconclusive: 25.1 µM [activator, partial curve]

Q: For `COc1ccc(C(=O)Nc2c3c(nn2-c2ccc(Cl)cc2)CS(=O)(=O)C3)cc1`, which activation is on record?
A: inconclusive: 30.1% [activator]

Q: With `O=C(Nc1ccc(Cl)cc1)c1cc2c(Cl)nc3ccccc3c2s1` as the compound, how does the “activation” value read?
A: inactive: -20.1%

Q: Which activation does the source give for `CC1=C(C(=O)Nc2ccccc2C)C(c2ccc(C)o2)C2=C(CCCC2=O)N1` (centres undefined) here?
A: inconclusive: 72.3% [activator] [at 57.5 µM]

Q: How did the Potency turn out when `C/C(CCc1oc2c(Br)cc(Br)cc2c1-c1ccc(C)o1)=N\O` was run?
A: inconclusive: 44.7 µM [activator, single point]

Q: With `COc1ccccc1NC(=O)Cn1cc(C(=O)c2ccncc2)c(=O)c2cc(C)ccc21` as the compound, how does the Potency read?
A: inconclusive: 50.1 µM [activator, partial curve, poor fit]

Q: `Cc1cc(=O)[nH]c2nnc(SCC(=O)Nc3ccc(F)cc3F)n12` was tested. Which activation did it give?
A: inconclusive: 49.1% [activator]

Q: How did the activation turn out when `CCn1c(SCC(=O)Nc2cccc(OC)c2)nc2ccccc2c1=O` was run?
A: inconclusive: -34% [activator]

Q: `CN(C(=O)CCN1CCCO1)C1CCCN(Cc2ccccc2F)C1` (centres undefined) was tested. Which Potency did it give?
A: inconclusive: 141 µM [activator, single point]

Q: With `CCOc1ccccc1Nc1nc(-c2ccc(C)cc2)c(CC(=O)O)s1` as the compound, how does the Potency read?
A: inconclusive: 44.7 µM [activator, partial curve, poor fit]

Q: How did the “activation” value turn out when `Cc1nnc(SCC(=O)N2c3ccccc3C(C)(c3ccccc3)CC2(C)C)s1` (centres undefined) was run?
A: inactive: -27%

Q: For `Cc1ccc(NC(=O)CN2C(=O)CC(c3ccc(F)cc3)=Nc3ccccc32)cc1F`, which Potency is on record?
A: inconclusive: 25.1 µM [activator, partial curve]

Q: `O=C(C(Cl)Cl)N1c2ccccc2OCC1c1ccccc1` (centres undefined) was tested. Which “activation” value did it give?
A: inactive: -12.8% [at 57.5 µM]

Q: With `CCN(Cc1ccccc1)C(=O)c1[nH]c2ccc(OC)cc2c1C` as the compound, how does the “activation” value read?
A: inactive: -21.8%

Q: For `C#Cc1ccc([C@H]2C=C(C(=O)O)O[C@@H](OCCCCO)C2)cc1`, which Potency is on record?
A: inconclusive: 158 µM [activator, single point]

Q: For `Cc1cn(S(=O)(=O)c2ccccc2[N+](=O)[O-])cn1`, which Potency is on record?
A: inconclusive: 7.94 µM [activator, full curve]

Q: For `Cc1cc(C)cc(OCC(=O)OCC(=O)NCc2cccs2)c1`, which Potency is on record?
A: inconclusive: 79.4 µM [activator, partial curve, poor fit]

Q: Which Potency does the source give for `Cc1ccc(O)c(/C=N/NC(=O)COc2ccc3c(C)cc(=O)oc3c2)c1` here?
A: inconclusive: 50.1 µM [activator, partial curve, poor fit]

Q: For `COc1ccc(-c2oc3ccc(N4CCOCC4)cc3c2/C=C/c2ccc(OC)c(OC)c2)cc1`, which activation is on record?
A: inconclusive: 31.6% [activator]

Q: For `COc1cccc(C(=O)Nc2nc3nc(C)c(C)c(=O)n3[nH]2)c1`, which Potency is on record?
A: inconclusive: 50.1 µM [activator, partial curve, poor fit]

Q: With `O=C(Cc1ccc(Br)cc1)c1ccc(O)cc1O` as the compound, how does the “activation” value read?
A: inactive: -51.9% [at 57.5 µM]

Q: For `CSCC[C@H](N)C(=O)N1CCC(C(=O)N[C@@H](Cc2c[nH]c3ccccc23)C(=O)O)CC1`, which Potency is on record?
A: inconclusive: 126 µM [activator, single point]

Q: Which Potency does the source give for `O=C(Nc1cccc(NC(=O)C2CCCO2)c1)C1CCCO1` (centres undefined) here?
A: inconclusive: 44.7 µM [activator, partial curve, poor fit]

Q: For `COc1cccc(/C=N/NC(=O)c2cc(-c3cccn3C)n[nH]2)c1`, which Potency is on record?
A: inconclusive: 44.7 µM [activator, single point]

Q: How did the activation turn out when `CCOc1ccc(S(=O)(=O)N2CCN(Cc3ccc4c(c3)OCO4)CC2)cc1Cl` was run?
A: inconclusive: 44% [activator]

Q: With `COc1ccc(Nc2cc(C(=O)NCc3ccco3)c3ccccc3n2)c(OC)c1` as the compound, how does the activation read?
A: inconclusive: -50.3% [activator]

Q: How did the Potency turn out when `COc1ccc(NC(=O)C2Cc3c(-c4ccc(NC(C)=O)cc4)ccnc3O2)cn1` (centres undefined) was run?
A: inconclusive: 12.6 µM [activator, full curve]

Q: How did the “activation” value turn out when `O=C(O)c1cccc(N2C(=O)c3ccc(Oc4ccc(Cl)cc4)cc3C2=O)c1` was run?
A: inactive: -13%

Q: How did the Potency turn out when `O=C(NC12CC3CC(CC(C3)C1)C2)c1ccc([N+](=O)[O-])o1` was run?
A: inconclusive: 5.62 µM [activator, partial curve]

Q: For `CN(C)c1ccc(C(=O)NCc2ccc3c(c2)CCN3C(=O)c2ccc(Cl)cc2)cc1`, which Potency is on record?
A: inconclusive: 44.7 µM [activator, partial curve, poor fit]

Q: With `CN1CCc2c1nc1ccccc1c2NC(=O)CN1CCCC1` as the compound, how does the activation read?
A: inconclusive: -55.8% [activator]

Q: `O=C(NC(=O)N1CCCCCC1)c1ccccc1` was tested. Which Potency did it give?
A: inconclusive: 50.1 µM [activator, partial curve, poor fit]

Q: With `COc1ccccc1NS(=O)(=O)c1cc(C(=O)N2CCCC2)ccc1C` as the compound, how does the “outcome” value read?
A: inactive

Q: How did the “activation” value turn out when `Cc1ccccc1Nc1scc(-c2ccc(Cl)cc2)[n+]1-c1ccccc1C` was run?
A: inactive: -14.7%

Q: `COC(=O)C1=C(CN2CCN(C)CC2)NC(=O)NC1c1cc(C)ccc1C` (centres undefined) was tested. Which “activation” value did it give?
A: inactive: -6.49%

Q: For `CCN(CC)CCCNc1oc(-c2ccc(OC)cc2)nc1C#N`, which Potency is on record?
A: inconclusive: 89.1 µM [activator, single point]

Q: With `OCC1(Cc2ccc(F)cc2)CCCN(CCCC(F)(F)F)C1` (centres undefined) as the compound, how does the Potency read?
A: inconclusive: 89.1 µM [activator, partial curve, poor fit]

Q: For `Nc1nc(C23CC4CC(CC(C4)C2)C3)[nH]c(=O)n1`, which activation is on record?
A: inconclusive: 3.94% [activator]

Q: Which “activation” value does the source give for `O=C(Cn1cc(S(=O)(=O)Cc2ccccc2Cl)c2ccccc21)Nc1ccc(F)cc1F` here?
A: inactive: -12.9%
